The text below walks through data of the supplement of paper PMC12819154, “High-throughput peptide-centric local stability assay extends protein–ligand identification to membrane proteins, tissues and bacteria” (Nature Structural & Molecular Biology, 2025).

By UniProt entry, the sequences of proteins in these tests, tags left out. Where a name states a change or a piece, a line headed by the entry shows the natural chain unless it says otherwise.
UniProt Q8BZ98: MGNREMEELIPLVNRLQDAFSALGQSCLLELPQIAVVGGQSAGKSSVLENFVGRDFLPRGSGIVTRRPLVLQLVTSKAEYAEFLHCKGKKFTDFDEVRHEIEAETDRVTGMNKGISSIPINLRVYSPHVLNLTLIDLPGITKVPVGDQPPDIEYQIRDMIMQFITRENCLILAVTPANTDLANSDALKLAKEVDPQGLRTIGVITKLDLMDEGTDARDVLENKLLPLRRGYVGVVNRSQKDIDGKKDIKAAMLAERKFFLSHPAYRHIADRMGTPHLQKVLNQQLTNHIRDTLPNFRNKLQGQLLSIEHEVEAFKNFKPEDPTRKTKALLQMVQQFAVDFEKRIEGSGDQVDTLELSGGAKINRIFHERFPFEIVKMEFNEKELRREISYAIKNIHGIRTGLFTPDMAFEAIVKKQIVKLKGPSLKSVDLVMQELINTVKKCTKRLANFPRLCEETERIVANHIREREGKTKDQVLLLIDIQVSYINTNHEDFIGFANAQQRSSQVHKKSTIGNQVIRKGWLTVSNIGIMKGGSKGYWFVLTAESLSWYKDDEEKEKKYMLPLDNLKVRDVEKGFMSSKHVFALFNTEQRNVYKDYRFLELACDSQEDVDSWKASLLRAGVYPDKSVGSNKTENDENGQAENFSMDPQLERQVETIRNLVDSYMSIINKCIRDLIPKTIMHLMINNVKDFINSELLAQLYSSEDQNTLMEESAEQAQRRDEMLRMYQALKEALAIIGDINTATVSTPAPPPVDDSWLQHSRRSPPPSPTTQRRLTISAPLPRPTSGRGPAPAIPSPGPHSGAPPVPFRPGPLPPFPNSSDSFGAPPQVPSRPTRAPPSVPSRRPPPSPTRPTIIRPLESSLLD
UniProt Q8C5L6: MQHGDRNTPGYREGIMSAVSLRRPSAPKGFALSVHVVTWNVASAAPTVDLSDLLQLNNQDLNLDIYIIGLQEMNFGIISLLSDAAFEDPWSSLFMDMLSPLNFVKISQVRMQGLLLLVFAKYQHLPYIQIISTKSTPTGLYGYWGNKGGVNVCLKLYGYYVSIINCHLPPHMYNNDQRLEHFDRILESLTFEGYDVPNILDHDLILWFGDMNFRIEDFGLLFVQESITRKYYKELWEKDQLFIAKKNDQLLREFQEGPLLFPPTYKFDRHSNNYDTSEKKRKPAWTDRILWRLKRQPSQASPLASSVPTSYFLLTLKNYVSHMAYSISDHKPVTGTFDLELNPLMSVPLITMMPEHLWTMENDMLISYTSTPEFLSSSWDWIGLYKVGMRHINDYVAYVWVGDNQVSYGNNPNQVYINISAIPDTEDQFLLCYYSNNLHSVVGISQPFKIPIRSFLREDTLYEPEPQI
UniProt Q8C8U0: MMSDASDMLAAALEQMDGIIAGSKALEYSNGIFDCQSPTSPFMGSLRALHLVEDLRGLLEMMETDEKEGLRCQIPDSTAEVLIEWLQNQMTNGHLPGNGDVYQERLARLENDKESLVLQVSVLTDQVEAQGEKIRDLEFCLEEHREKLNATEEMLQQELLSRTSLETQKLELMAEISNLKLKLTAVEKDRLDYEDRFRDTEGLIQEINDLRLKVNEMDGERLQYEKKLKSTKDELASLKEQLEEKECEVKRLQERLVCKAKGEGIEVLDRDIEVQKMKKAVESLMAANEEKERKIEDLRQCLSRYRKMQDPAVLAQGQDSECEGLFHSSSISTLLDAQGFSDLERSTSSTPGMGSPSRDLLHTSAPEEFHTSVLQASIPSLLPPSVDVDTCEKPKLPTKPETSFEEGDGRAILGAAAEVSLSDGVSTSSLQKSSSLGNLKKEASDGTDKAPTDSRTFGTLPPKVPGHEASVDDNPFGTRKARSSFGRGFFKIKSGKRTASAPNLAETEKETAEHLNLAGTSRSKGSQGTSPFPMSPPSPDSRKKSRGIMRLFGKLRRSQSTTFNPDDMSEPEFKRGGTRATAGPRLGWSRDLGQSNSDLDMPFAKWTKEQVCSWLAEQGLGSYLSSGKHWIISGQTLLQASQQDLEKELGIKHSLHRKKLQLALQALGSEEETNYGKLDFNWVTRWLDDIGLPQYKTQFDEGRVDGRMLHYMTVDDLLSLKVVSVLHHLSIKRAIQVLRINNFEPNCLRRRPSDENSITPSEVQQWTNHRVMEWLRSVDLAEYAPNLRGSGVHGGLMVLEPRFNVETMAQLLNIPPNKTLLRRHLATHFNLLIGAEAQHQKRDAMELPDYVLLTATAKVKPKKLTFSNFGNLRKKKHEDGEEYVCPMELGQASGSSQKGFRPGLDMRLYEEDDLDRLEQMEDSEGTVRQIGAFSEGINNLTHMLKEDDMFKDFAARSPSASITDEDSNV
UniProt Q8C3X8: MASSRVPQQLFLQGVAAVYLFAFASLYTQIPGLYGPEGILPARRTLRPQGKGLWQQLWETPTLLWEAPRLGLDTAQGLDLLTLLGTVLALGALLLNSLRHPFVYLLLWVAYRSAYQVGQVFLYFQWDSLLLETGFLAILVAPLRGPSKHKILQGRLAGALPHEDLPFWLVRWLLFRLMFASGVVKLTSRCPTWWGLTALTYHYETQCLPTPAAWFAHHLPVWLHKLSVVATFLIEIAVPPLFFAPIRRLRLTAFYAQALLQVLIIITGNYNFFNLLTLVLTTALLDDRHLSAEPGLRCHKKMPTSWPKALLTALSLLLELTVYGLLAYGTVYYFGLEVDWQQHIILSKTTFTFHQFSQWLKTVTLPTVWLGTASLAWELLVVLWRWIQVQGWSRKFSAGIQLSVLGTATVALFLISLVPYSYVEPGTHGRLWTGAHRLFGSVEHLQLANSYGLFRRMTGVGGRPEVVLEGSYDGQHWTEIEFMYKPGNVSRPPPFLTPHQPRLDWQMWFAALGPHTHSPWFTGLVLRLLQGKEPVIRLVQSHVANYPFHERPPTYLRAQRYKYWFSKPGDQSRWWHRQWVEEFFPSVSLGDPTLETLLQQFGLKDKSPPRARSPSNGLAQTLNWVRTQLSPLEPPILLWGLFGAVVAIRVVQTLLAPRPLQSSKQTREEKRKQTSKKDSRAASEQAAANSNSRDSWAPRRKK
UniProt Q8BYR2: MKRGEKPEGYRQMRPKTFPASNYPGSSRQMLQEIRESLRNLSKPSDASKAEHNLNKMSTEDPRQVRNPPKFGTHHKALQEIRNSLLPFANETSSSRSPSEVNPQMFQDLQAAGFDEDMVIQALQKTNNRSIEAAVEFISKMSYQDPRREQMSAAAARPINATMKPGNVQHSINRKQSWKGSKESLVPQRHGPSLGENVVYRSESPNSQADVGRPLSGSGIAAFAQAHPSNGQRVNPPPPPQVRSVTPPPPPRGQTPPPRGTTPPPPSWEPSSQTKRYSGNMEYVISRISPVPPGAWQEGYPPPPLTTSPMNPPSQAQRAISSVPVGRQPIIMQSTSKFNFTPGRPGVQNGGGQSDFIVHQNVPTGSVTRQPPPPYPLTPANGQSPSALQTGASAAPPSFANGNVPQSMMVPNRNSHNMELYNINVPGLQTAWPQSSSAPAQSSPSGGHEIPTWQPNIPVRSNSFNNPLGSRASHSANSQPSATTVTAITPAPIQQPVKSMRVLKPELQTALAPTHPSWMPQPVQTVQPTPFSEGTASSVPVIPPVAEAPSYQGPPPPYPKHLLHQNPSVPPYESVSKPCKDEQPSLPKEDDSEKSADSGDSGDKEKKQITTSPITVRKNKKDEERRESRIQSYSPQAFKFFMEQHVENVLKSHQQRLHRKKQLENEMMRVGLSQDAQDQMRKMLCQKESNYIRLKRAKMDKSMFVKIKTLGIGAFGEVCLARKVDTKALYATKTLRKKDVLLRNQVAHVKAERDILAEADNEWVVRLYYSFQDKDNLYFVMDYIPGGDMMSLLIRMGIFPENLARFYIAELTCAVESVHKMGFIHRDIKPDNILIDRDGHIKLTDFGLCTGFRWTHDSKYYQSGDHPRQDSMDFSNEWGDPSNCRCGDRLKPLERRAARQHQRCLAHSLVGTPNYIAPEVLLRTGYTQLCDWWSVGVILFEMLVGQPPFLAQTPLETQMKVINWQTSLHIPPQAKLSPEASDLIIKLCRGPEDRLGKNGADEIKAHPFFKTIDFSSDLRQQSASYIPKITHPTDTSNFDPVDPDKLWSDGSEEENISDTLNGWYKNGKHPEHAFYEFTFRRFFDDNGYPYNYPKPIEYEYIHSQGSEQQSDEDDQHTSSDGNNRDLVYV
UniProt Q8C7E7: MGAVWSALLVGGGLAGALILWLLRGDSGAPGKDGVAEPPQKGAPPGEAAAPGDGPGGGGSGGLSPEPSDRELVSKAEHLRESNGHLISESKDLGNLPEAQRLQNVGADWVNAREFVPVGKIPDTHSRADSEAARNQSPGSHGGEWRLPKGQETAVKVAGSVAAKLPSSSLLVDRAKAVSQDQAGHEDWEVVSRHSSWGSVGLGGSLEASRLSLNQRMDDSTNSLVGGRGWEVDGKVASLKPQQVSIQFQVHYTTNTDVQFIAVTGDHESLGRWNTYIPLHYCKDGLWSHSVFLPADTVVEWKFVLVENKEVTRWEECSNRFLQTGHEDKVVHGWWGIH
UniProt Q8C6G1: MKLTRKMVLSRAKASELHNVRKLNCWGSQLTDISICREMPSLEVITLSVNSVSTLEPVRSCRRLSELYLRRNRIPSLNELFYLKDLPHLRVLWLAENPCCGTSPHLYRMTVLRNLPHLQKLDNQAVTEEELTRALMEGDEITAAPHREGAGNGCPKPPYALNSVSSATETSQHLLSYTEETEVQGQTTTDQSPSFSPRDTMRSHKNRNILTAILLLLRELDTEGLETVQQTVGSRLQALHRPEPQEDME
UniProt Q8C5P7: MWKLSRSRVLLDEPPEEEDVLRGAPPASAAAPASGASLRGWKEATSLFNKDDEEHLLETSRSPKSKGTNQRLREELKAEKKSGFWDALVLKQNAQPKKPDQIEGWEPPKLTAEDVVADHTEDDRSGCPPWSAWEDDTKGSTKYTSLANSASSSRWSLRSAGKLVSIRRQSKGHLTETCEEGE
UniProt Q8BX10: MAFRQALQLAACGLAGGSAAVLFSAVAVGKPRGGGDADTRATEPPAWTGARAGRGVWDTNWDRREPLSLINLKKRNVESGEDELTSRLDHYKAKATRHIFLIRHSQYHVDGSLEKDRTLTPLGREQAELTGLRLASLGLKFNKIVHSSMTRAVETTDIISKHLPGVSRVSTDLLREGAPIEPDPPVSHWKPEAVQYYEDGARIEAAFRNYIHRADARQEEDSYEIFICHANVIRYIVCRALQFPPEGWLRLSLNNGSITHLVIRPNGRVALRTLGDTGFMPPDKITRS
UniProt Q8C407: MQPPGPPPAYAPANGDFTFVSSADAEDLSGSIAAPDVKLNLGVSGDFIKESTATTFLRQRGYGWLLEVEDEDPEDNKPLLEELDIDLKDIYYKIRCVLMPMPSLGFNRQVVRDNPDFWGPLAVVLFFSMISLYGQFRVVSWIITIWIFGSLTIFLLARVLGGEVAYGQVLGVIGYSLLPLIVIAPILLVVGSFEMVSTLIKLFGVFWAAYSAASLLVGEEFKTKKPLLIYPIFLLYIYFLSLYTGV
UniProt Q8C0D0: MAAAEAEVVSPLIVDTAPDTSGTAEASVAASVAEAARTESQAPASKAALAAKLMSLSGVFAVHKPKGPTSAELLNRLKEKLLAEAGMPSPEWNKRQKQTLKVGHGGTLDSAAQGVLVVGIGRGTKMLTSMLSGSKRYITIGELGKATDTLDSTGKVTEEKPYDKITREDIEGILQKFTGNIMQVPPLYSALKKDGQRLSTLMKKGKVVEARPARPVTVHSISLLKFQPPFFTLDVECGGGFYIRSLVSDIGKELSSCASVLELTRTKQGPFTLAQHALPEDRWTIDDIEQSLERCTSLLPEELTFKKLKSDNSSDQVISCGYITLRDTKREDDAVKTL
UniProt Q8C167, whole entry: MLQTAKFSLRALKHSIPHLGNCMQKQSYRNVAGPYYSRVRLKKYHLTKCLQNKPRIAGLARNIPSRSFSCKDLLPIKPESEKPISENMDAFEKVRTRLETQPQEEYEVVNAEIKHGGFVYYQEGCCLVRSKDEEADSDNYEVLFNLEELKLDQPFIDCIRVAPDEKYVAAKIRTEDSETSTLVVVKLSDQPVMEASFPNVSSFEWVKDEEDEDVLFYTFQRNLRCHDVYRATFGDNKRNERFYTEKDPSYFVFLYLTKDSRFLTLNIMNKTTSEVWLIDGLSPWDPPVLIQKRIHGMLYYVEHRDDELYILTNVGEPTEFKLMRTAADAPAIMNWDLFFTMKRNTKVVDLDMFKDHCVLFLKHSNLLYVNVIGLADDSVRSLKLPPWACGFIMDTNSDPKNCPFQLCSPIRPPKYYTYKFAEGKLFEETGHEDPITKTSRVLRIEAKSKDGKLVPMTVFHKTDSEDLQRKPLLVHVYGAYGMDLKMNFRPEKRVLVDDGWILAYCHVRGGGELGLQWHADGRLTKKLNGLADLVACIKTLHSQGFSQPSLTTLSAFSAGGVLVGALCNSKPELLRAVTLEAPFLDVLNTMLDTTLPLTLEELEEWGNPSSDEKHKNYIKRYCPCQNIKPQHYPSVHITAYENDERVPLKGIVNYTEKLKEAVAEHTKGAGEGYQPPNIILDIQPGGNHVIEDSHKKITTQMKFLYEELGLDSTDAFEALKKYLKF

Some of the results follow. Small differences around the control level are noise.

Compound in the test: CN[C@@H]1C[C@H]2O[C@@](C)([C@@H]1OC)n1c3ccccc3c3c4c(c5c6ccccc6n2c5c31)C(=O)NC4 [staurosporine]
Kind of test: log2 fold change of tryptic peptide abundance, ligand vs vehicle (limited proteolysis) (log2 ratio); higher = more trypsin-susceptible (destabilized). To be noted: ligand concentration: 20 uM; sample: mouse liver crude lysate; replicate design: treated separately.
“UniProt Q8C5N5 (peptide sequence: KPVLLGLR, peptide start residue: 6)”: the log2 fold change came out at 0.202. For the target “UniProt Q8BXK4 (peptide sequence: KYREVGDFDK, peptide start residue: 48)”, the log2 fold change worked out at 0.731. Consider “UniProt Q8BZ98 (peptide sequence: LTISAPLPRPTSGR, peptide start residue: 774)”, for which the log2 fold change was found to be 0.0724. Take “UniProt Q8C5L6 (peptide sequence: EGIMSAVSLR, peptide start residue: 13)”: the log2 fold change is 0.0775. In the case of “UniProt Q8BW10 (peptide sequence: YAINPHLTEDQR, peptide start residue: 325)”, the log2 fold change was -0.125. In the case of “UniProt Q8C8U0 (peptide sequence: KEASDGTDKAPTDSR, peptide start residue: 441)”, the log2 fold change came to 2.21. Regarding “UniProt Q8C8V1 (peptide sequence: RKHDDDR, peptide start residue: 381)”, the log2 fold change was 0.0294. For “UniProt Q8C166 (peptide sequence: NCSSPEFSK, peptide start residue: 51)”, the log2 fold change is -0.451. With “UniProt Q8BVW3 (peptide sequence: GHPVGLAEEEAVR, peptide start residue: 53)”, the log2 fold change is -0.281.

“UniProt Q8C3X8 (peptide sequence: AASEQAAANSNSR, peptide start residue: 681)”: the log2 fold change is -0.034. The same measure for “UniProt Q8C5K5 (peptide sequence: IQNFLNEFK, peptide start residue: 185)”: -0.346; for “UniProt Q8C8R3 (peptide sequence: VALLLLEK, peptide start residue: 725)”: 0.169; for “UniProt Q8BVZ1 (peptide sequence: SMSQAMDMVLGK, peptide start residue: 161)”: 0.429. For “UniProt Q8BYR2 (peptide sequence: YYQSGDHPR, peptide start residue: 860)”, the log2 fold change was -0.623.

Take “UniProt Q8C767 (peptide sequence: VQNLAFEK, peptide start residue: 150)”: the log2 fold change is -0.472.

Regarding “UniProt Q8C7E7 (peptide sequence: FLQTGHEDK, peptide start residue: 321)”, the log2 fold change is -0.261. The same measure for “UniProt Q8C6G1 (peptide sequence: ASELHNVR, peptide start residue: 14)”: -0.456; for “UniProt Q8C4S8 (peptide sequence: HAGEGDKDVSPGISFK, peptide start residue: 266)”: 0.753; for “UniProt Q8C5P7 (peptide sequence: LTAEDVVADHTEDDR, peptide start residue: 110)”: -0.277.

For “UniProt Q8BYZ1 (peptide sequence: VANYCEDNYLQATDKR, peptide start residue: 32)”, the log2 fold change is 0.34. Consider “UniProt Q8BWD8 (peptide sequence: VFLLLQK, peptide start residue: 308)”, for which the log2 fold change was -0.73. In the case of “UniProt Q8C854 (peptide sequence: LGSAMIGGFAGR, peptide start residue: 426)”, the log2 fold change was -0.211. For “UniProt Q8C3I8 (peptide sequence: ELHSWEPEPDVR, peptide start residue: 324)”, the log2 fold change was -0.302.

“UniProt Q8BX10 (peptide sequence: EPLSLINLK, peptide start residue: 65)”: the log2 fold change is 0.0935. As for “UniProt Q8C407 (peptide sequence: ESTATTFLR, peptide start residue: 50)”, the log2 fold change turned out to be 0.266. Turning to “UniProt Q8C079 (peptide sequence: DIEMFLESSR, peptide start residue: 432)”, the log2 fold change is 0.246. For the target “UniProt Q8BZI6 (peptide sequence: YCCFTPSGHR, peptide start residue: 166)”, the log2 fold change came to 0.297. “UniProt Q8C0D0 (peptide sequence: GPTSAELLNR, peptide start residue: 67)”: the log2 fold change is -0.274.

Take “UniProt Q8BZ33 (peptide sequence: PSRIFGFVAK, peptide start residue: 648)”: the log2 fold change is 0.492. The value for “UniProt Q8C167 (peptide sequence: LFEETGHEDPITK, peptide start residue: 425)” was -0.255; that for “UniProt Q8C013 (peptide sequence: YEQDADPR, peptide start residue: 357)” was 0.908.
